PubChem BioAssay AID720505 | Drosophila RNAi Screening Center – 2013

Screen: 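Genes needed for store-operated calcium entry in fly cells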 (primary screen)
Cell system: Drosophila S2R+ cells
Knock-down reagent: long dsRNA against Drosophila genes
Conditions: thapsigargin (2 µM) in calcium-free buffer to empty internal stores, then 2 mM calcium added back
Measurement: 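Stores emptied by 2 µM thapsigargin without calcium, then 2 mM calcium re-added; fluo-4 fluorescence followed by FLIPR in 384-well plates, per-well averaged endpoint, raw; two screen passes, some wells retested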
Scale: calcium signal and retest calcium signal: higher = more calcium entry after store depletion
Rule for the call: 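Knock-downs counted as hits when calcium entry dropped relative to STIM1 positive and Rho1 negative controls present on each plate; roughly 1500 genes called, with reductions of differing size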
Calls: active = called as lowering calcium entry; inactive = not called
In all, the deposit lists about 20,000 reagents; this is an unselected part of those with a known target gene and a result. Of all reagents, about 2,100 (10%) are marked active. 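Raw plate signals without normalisation; calls rest on control-based scores that were not deposited; replicate 2 separates called from uncalled poorly.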 The numbers tell different reagents against one gene apart. Not given: the amount of reagent, the time to read-out.

| gene | reagent | calcium signal, replicate 1 | calcium signal, replicate 2 | retest calcium signal, replicate 1 | retest calcium signal, replicate 2 | Call |
| --- | --- | --- | --- | --- | --- | --- |
| hiro | 1 | 129 | 81.5 | – | – | inactive |
| mRpL30 | 1 | 258 | 115 | – | – | inactive |
| Tnpo-SR | 1 | 88.4 | 172 | – | – | inactive |
| CG13375 | 1 | 133 | 140 | – | – | inactive |
| Cand1 | 1 | 73.7 | 93.8 | – | – | inactive |
| CG17221 | 1 | 97.4 | 78.9 | – | – | inactive |
| wmd | 1 | 62.9 | 153 | – | – | active |
| CG10919 | 1 | 116 | 152 | – | – | inactive |
| CG7943 | 1 | 104 | 188 | – | – | inactive |
| Ets65A | 1 | 110 | 55 | – | – | inactive |
| Ets65A | 2 | 92.9 | 140 | – | – | inactive |
| Ets65A | 3 | 87.6 | 116 | – | – | inactive |
| Ir87a | 1 | 79.3 | 202 | – | – | inactive |
| goe | 1 | 96.3 | 158 | – | – | inactive |
| CG16700 | 1 | 105 | 113 | – | – | inactive |
| kune | 1 | 169 | 150 | – | – | inactive |
| mRpL13 | 1 | 110 | 116 | – | – | inactive |
| CG15098 | 1 | 105 | 76.5 | – | – | inactive |
| CG13488 | 1 | 195 | 120 | – | – | inactive |
| Hsp68 | 1 | 204 | 188 | – | – | inactive |
| nwk | 1 | 74.6 | 109 | – | – | active |
| nwk | 2 | 97.5 | 97 | – | – | inactive |
| CG1309 | 1 | 105 | 124 | – | – | inactive |
| CG43393 | 1 | 74 | 6063 | – | – | inactive |
| Hr39 | 1 | 156 | 134 | – | – | inactive |
| CG8001 | 1 | 164 | 114 | – | – | inactive |
| Cda4 | 1 | 212 | 91.8 | – | – | inactive |
| Cda4 | 2 | 76.4 | 115 | – | – | active |
| Cda4 | 3 | 178 | 111 | – | – | inactive |
| CG6191 | 1 | 178 | 141 | – | – | inactive |
| CG6191 | 2 | 102 | 176 | – | – | inactive |
| qkr58E-2 | 1 | 73.1 | 96.7 | – | – | active |
| Rrp6 | 1 | 69.6 | 55.8 | – | – | active |
| CG33340 | 1 | 205 | 166 | – | – | inactive |
| Cyp40 | 1 | 204 | 127 | – | – | inactive |
| Or65c | 1 | 116 | 75.5 | – | – | inactive |
| CG30395 | 1 | 85.6 | 4094 | – | – | inactive |
| PPP1R15 | 1 | 112 | 80.7 | – | – | inactive |
| CG14570 | 1 | 91.1 | 157 | – | – | inactive |
| lncRNA:yar | 1 | 7458 | 125 | – | – | inactive |
| lncRNA:yar | 2 | 177 | 88.7 | – | – | inactive |
| CG4020 | 1 | 246 | 146 | – | – | inactive |
| Larp7 | 1 | 141 | 107 | – | – | inactive |
| CG33098 | 1 | 118 | 188 | – | – | inactive |
| CG10749 | 1 | 65.6 | 84.7 | – | – | inactive |
| CG4000 | 1 | 123 | 177 | 9795 | 201 | inactive |
| CG4000 | 2 | 253 | 117 | – | – | inactive |
| GlcT | 1 | 86 | 84.7 | – | – | inactive |
| CG5913 | 1 | 219 | 165 | – | – | inactive |
| pasi1 | 1 | 59.9 | 159 | 133 | 9289 | active |
| pasi1 | 2 | 77.9 | 237 | – | – | inactive |
| CG3776 | 1 | 123 | 101 | – | – | inactive |
| Prosalpha3 | 1 | 65.6 | 135 | – | – | inactive |
| CG6178 | 1 | 152 | 177 | – | – | inactive |
| CG11037 | 1 | 102 | 136 | – | – | inactive |
| Nprl2 | 1 | 112 | 118 | – | – | inactive |
| CG6290 | 1 | 130 | 129 | – | – | inactive |
| upd3 | 1 | 98.2 | 115 | – | – | inactive |
| upd3 | 2 | 90.8 | 91 | – | – | inactive |
| upd3 | 3 | 125 | 249 | – | – | inactive |
| RabGGTb | 1 | 117 | 228 | – | – | inactive |
| CG31495 | 1 | 114 | 176 | – | – | inactive |
| CG6583 | 1 | 61.6 | 166 | – | – | active |
| Mpc1 | 1 | 100 | 174 | – | – | inactive |
| CG15278 | 1 | 63 | 99 | – | – | active |
| GNBP-like3 | 1 | 112 | 113 | – | – | inactive |
| Spt20 | 1 | 66.8 | 63 | – | – | active |
| Spt20 | 2 | 120 | 104 | – | – | inactive |
| Gas8 | 1 | 104 | 149 | – | – | inactive |
| sprt | 1 | 134 | 113 | – | – | inactive |
| CG13130 (retired record) | 1 | 112 | 114 | – | – | inactive |
| vn | 1 | 83.8 | 80.6 | – | – | inactive |
| vn | 2 | 116 | 141 | – | – | inactive |
| CG14142 | 1 | 88.4 | 102 | – | – | inactive |
| IntS4 | 1 | 114 | 94.3 | – | – | inactive |
| CG14269 | 1 | 74.9 | 89.6 | – | – | inactive |
| CG7148 | 1 | 95.8 | 94.1 | – | – | inactive |
| CG4770 | 1 | 195 | 164 | – | – | inactive |
| Vha100-5 | 1 | 165 | 132 | – | – | inactive |
| CG14007 | 1 | 113 | 105 | – | – | inactive |
| tor | 1 | 147 | 152 | – | – | inactive |
| Snx17 | 1 | 116 | 117 | – | – | inactive |
| CG13288 | 1 | 87.2 | 81.7 | – | – | inactive |

Look-ups from the entries so far.
Result of Tnpo-SR in “Call”: inactive
Ets65A #2, calcium signal, replicate 1: 92.9
Result for CG10919 under “calcium signal, replicate 2”: 152
Result of CG6290 in “calcium signal, replicate 1”: 130
For “calcium signal, replicate 1”, sprt has 134
Result of goe in “Call”: inactive
